Out of some 340,000 compounds screened, about 170 (0.05%) were called active. Inconclusive means that the source gave no clear call. Such entries were picked first, then a sample of the others. The call rests on the fitted dose curve; in most records, active means well fitted inhibition curve with a large enough effect in the signal ratio, with a control signal flat (not every such curve was filed as active); inconclusive means small, poorly fitted or top-dose-only effect, or effect the other way, or a change in a side signal; inactive means flat fitted curve, though single readings scatter; the % refers to the signal ratio. A potency beside an inconclusive call is a rough fit, not a confirmed value.
Test: qHTS Assay to Find Inhibitors of Chronic Active B-Cell Receptor Signaling;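 on activity change, negative = inhibition: plate controls were basal doxycycline-induced cells for no effect and cells given 10 µM MG132 for full effect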
Details: ABC-DLBCL IkBa-CBG/CBR reporter, luminescence ratio (green luciferase fused to IkBa over red control in TMD8 lymphoma cells), 4 h; activity change, negative = inhibition: at 46.1 µM (top of the series)
Method in brief: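 TMD8 ABC-DLBCL cells carrying doxycycline-inducible green luciferase fused to IkappaBalpha plus unfused red luciferase were exposed to compounds (up to 46 uM) for 4 hrs at 37C. Activity came from the overlap-corrected green/red luminescence ratio.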
For `COC(=O)c1ccccc1NC1CC(=O)N(c2c(C)cccc2C)C1=O` (stereo unspecified), the Potency was inconclusive: 3.26 µM [falling, partial curve, poor fit].
With `Cc1cc(C)c(C#N)c(N2CCN(c3ccc(F)cc3)CC2)n1` the activity change, negative = inhibition was inconclusive: 6.96%.
In the case of `C/C(=N\NC(=S)NC1CCCCC1)c1cccc(C(F)(F)F)c1`, the activity change, negative = inhibition is reported as “inactive”.
In the case of `Cc1ccc2nc(-c3cccnc3)oc2c1`, the activity change, negative = inhibition is reported as inconclusive: 6.93%.
For `Cc1ccc(C(=O)NCC(=O)OCC(=O)/C=C2\N(C)c3ccccc3C2(C)C)cc1C`, the activity change, negative = inhibition was “inactive”.
For `COc1ccc(C[C@H](N)C(=O)N[C@H]2[C@@H](O)[C@H](n3cnc4c(N(C)C)ncnc43)O[C@@H]2CO)cc1`, the Potency was inconclusive: 25.9 µM [falling, single point].
In the case of `O=C(NC(=S)Nc1ccccc1N1CCCC1)c1cccc(F)c1`, the activity change, negative = inhibition is reported as inconclusive: -0.366%.
In the case of `O=C(c1ncn[nH]1)N1CCN(c2nc(-c3ccccc3)cs2)CC1`, the activity change, negative = inhibition is reported as inconclusive: -1.84%.
In the case of `O=C(O)COc1ccc(/C=C/C(=O)c2ccc3ccccc3c2)cc1`, the Potency is reported as inconclusive: 35.5 µM [falling, single point].
With `COC(=O)c1sccc1NC(=O)CSc1ccccc1NS(=O)(=O)c1cc(Cl)ccc1Cl` the Potency was inconclusive: 18.4 µM [falling, partial curve].
In the case of `Cc1c(N=Cc2nc3ccccc3n2C)c(=O)n(-c2ccccc2)n1C`, the activity change, negative = inhibition is reported as inconclusive: -16.1%.
For `CCOc1ccccc1C(=O)Nc1ccc2nc3n(c(=O)c2c1)CCCCC3`, the Potency was inconclusive: 2.82 µM [falling, partial curve, poor fit].
With `CN1c2ccccc2Oc2nnc(N3CCN(Cc4ccccc4)CC3)cc21` the activity change, negative = inhibition was “inactive”.
For `O=C(NCc1ccco1)c1cc(-c2ccccc2)nn1CC1CC(c2cccc([N+](=O)[O-])c2)=NO1` (stereo unspecified), the activity change, negative = inhibition was inconclusive: 4.54%.
For `Cc1sc(NC(=O)Cn2cnnn2)nc1-c1ccc(Cl)cc1`, the activity change, negative = inhibition was inconclusive: 2.28%.
With `COc1ccccc1-c1c(C)nn2c(C)cc(C)nc12` the activity change, negative = inhibition was inconclusive: 5.38%.
In the case of `CC(C)OC(=O)c1cccc(C(=O)OCc2ccco2)n1`, the Potency is reported as inconclusive: 10 µM [falling, partial curve, poor fit].
With `O=C(NCc1ccncc1)C1CCCCC1` the activity change, negative = inhibition was inconclusive: 2.99%.
In the case of `CN(C)CCNC(=O)C(c1ccccc1)c1ccccc1`, the activity change, negative = inhibition is reported as inconclusive: 17.2%.
In the case of `CCCn1c2ccccc2c2cc(C(=O)O)ccc21`, the activity change, negative = inhibition is reported as inconclusive: 17.2%.
In the case of `COc1ccc(NC(=O)CSCC(=O)N(C)CC(=O)Nc2cccc3ccccc23)cc1`, the activity change, negative = inhibition is reported as “inactive”.
With `CCN(CC)CCCN(Cc1cc2cc3c(cc2[nH]c1=O)OCCO3)C(=O)Nc1ccccc1` the Potency was inconclusive: 17.8 µM [falling, partial curve, poor fit].
In the case of `Cc1ccccc1NC(=O)CC(C)S(=O)(=O)c1ccc2c(c1)NC(=O)CO2` (stereo unspecified), the activity change, negative = inhibition is reported as inconclusive: -8.05%.
In the case of `COc1ccc(Cc2nnc(N/N=C/c3ccc(O)cc3O)[nH]c2=O)cc1OC`, the Potency is reported as inconclusive: 18.4 µM [falling, single point].
In the case of `O=C(CC1(O)C(=O)Nc2ccccc21)c1cccnc1` (stereo unspecified), the Potency is reported as inconclusive: 0.731 µM [falling, full curve, poor fit].
For `O=C(/C=C/c1ccc(OC(F)F)cc1)Nc1cccc(S(=O)(=O)NC2=NCCCCC2)c1`, the Potency was inconclusive: 12.6 µM [falling, partial curve].
With `Cc1ccccc1-c1nnn(CC(=O)N(C)CC(=O)Nc2ccccc2C(F)(F)F)n1` the Potency was inconclusive: 32.6 µM [falling, partial curve, poor fit].
For `NC(=NC(=O)c1cccc(C(F)(F)F)c1)c1ccc(C(F)(F)F)cn1`, the activity change, negative = inhibition was inconclusive: 23.1%.
With `COc1ccc(SCCN2CC[C@@H](C(C)(C)C)CCC2=O)cc1` the activity change, negative = inhibition was inconclusive: -17.8%.
In the case of `CC(C)c1ccc(NC(=S)NN2CCOCC2)cc1`, the activity change, negative = inhibition is reported as “inactive”.
With `CCCCN1CC(O)=C(c2nc(-c3ccc(Br)cc3)cs2)C1=N` the activity change, negative = inhibition was inconclusive: 4.26%.
With `CC1(C)Cc2c(c(N3CCOCC3)nc3sc(C(=O)Nc4ccccc4)c(N)c23)CO1` the activity change, negative = inhibition was “inactive”.
For `COc1ccccc1C(C(=O)NC1CCCC1)N(C(=O)c1csnn1)C1CC1` (stereo unspecified), the activity change, negative = inhibition was “inactive”.
With `Cc1ccc(C)c(C(=O)COC(=O)c2ccc(Br)o2)c1` the Potency was inconclusive: 29.1 µM [falling, single point].
For `Cc1cc2[nH]ncc2cc1NC(N)=S`, the activity change, negative = inhibition was inconclusive: -16.2%.
For `Cc1nn(Cc2ccc(F)cc2)c(C)c1NC(=O)c1cnn2c1NC(c1cccs1)CC2C(F)(F)F` (stereo unspecified), the activity change, negative = inhibition was inconclusive: 21.8%.
For `O=C(COC(=O)c1ccc(F)c(S(=O)(=O)N2CCOCC2)c1)NCc1ccc(F)cc1`, the activity change, negative = inhibition was inconclusive: 5.47%.
In the case of `O=C(CC1SC(N2CCCCC2)=NC1=O)Nc1cccc(C(=O)Nc2ncccc2O)c1` (stereo unspecified), the Potency is reported as inconclusive: 18.4 µM [falling, partial curve, poor fit].
With `COc1ccc(NC(=O)CSC2=C(C#N)C(c3ccco3)C3=C(CCCC3=O)N2)c(OC)c1` (stereo unspecified) the activity change, negative = inhibition was inconclusive: 5.7%.
With `CC(C)c1nc2sc3c(SCC(N)=O)ncnc3c2c2c1CCC2` the activity change, negative = inhibition was inconclusive: 8.03%.
With `CCOC(=O)c1ccc(NC(=S)N2CCN(CCN=CC3=C(O)CC(c4ccccc4)CC3=O)CC2)cc1` (stereo unspecified) the activity change, negative = inhibition was inconclusive: -20.8%.
In the case of `CN=C1SC(CC(=O)Nc2ccccc2F)C(=O)N1/N=C/c1ccc(O)c(OC)c1` (stereo unspecified), the Potency is reported as inconclusive: 35.5 µM [falling, single point].
For `COc1cc(NC(=O)[C@@H](NC(=O)N2CCn3c2nc2ccccc23)C(C)C)cc(OC)c1`, the activity change, negative = inhibition was inconclusive: -0.199%.
With `COc1ccc(CN2CCC(=O)N([C@H](CO)Cc3ccccc3)CC2)cc1OC` the activity change, negative = inhibition was “inactive”.
In the case of `CC(=O)/C(=N\Nc1ccc(Cl)cc1Cl)Sc1cccc2cccnc12`, the Potency is reported as inconclusive: 29.1 µM [cytotoxic, single point].
In the case of `CCOC(=O)Cn1c(=O)oc2cc(S(=O)(=O)Nc3c(C)cc(C)cc3C)ccc21`, the Potency is reported as inconclusive: 9.2 µM [rising, partial curve, poor fit].
In the case of `Cc1[nH]n(-c2ccccc2)c(=O)c1C=NCc1ccco1`, the activity change, negative = inhibition is reported as inconclusive: 8.7%.
For `CCCc1cc(=O)oc2cc(OCC(=O)NCCCN3CCOCC3)c(Cl)cc12`, the activity change, negative = inhibition was inconclusive: 2.98%.
In the case of `COc1ccc(CN(CC(O)COCc2ccccc2)S(=O)(=O)c2ccccc2Br)cc1OC` (stereo unspecified), the activity change, negative = inhibition is reported as “inactive”.
In the case of `O=C(NCCc1ccccc1)C1CCCN(S(=O)(=O)c2cccc3nsnc23)C1` (stereo unspecified), the activity change, negative = inhibition is reported as inconclusive: 10.8%.
With `C#CCOCCOCCOCCNc1nc(N2CCN(C(=O)[C@H]([C@@H](C)O)n3cc(CCCCN)nn3)CC2)nc(N2CCN(C(=O)[C@H](CCCCN)n3cc(CC(C)O)nn3)CC2)n1` (stereo partly specified) the activity change, negative = inhibition was inconclusive: -1.38%.
With `CCOC(=O)c1sc2nc(C)nc(NCc3ccc(Cl)cc3)c2c1C` the activity change, negative = inhibition was “inactive”.
For `CC(/C=N/n1c(COc2ccccc2)n[nH]c1=S)=C\c1ccccc1`, the activity change, negative = inhibition was inconclusive: 15.8%.
In the case of `CCCS(=O)(=O)N1CCC(C(=O)NCCc2ccccc2)CC1`, the Potency is reported as inconclusive: 23.1 µM [rising, partial curve, poor fit].
With `COc1ccc(C(=O)Nc2cc([N+](=O)[O-])ccc2N2CCCC2)cc1` the activity change, negative = inhibition was inconclusive: 2.61%.
In the case of `Cc1cc2cc(C)c3nnc(SCC(=O)N4CCc5ccccc54)n3c2cc1C`, the activity change, negative = inhibition is reported as inconclusive: -2.04%.
For `COc1ccc(CNC(=O)C[C@H]2C[C@H](C(=O)N(C(C)C)C(C)C)[C@@]3(C)c4[nH]c5ccc(Cl)cc5c4CCN3C2=O)cc1OC`, the activity change, negative = inhibition was inconclusive: -25.1%.
With `CCOc1ccc(/C=C2\SC(=S)N(CCC(=O)O)C2=O)cc1` the activity change, negative = inhibition was inconclusive: -79.7%.
For `Cc1cc(NS(=O)(=O)c2ccc(NC(=O)CCCOc3ccc(Cl)cc3)cc2)no1`, the activity change, negative = inhibition was inconclusive: 6.24%.
With `Cc1ccc(-n2c(C)cc(/C([O-])=C(/C(=S)Nc3ccc(F)c(Cl)c3)[n+]3ccccc3)c2C)cc1` the Potency was inconclusive: 20.6 µM [falling, partial curve].
In the case of `N=c1n(CCc2ccccc2)c2ccccc2n1Cc1ccccc1F`, the activity change, negative = inhibition is reported as inconclusive: -15.9%.
For `CCN(CC)Cc1c(C(=O)N/N=C/c2ccccn2)nnn1-c1nonc1N`, the activity change, negative = inhibition was “inactive”.
With `O=C(CN1C(=O)NC2(CCOc3ccccc32)C1=O)c1ccc[nH]1` (stereo unspecified) the activity change, negative = inhibition was inconclusive: 1.96%.
In the case of `CC(C)(Oc1ccc(Cl)cc1)C(=O)Nc1ncccn1`, the activity change, negative = inhibition is reported as inconclusive: 5.93%.
For `Cc1ccc(-n2c(Cn3nc(C(F)F)cc3C(F)F)n[nH]c2=S)cc1`, the Potency was inconclusive: 4.11 µM [falling, single point].
With `Cc1cc(N2CCN(C(c3ccccc3)c3ccc(Cl)cc3)CC2)n2ncnc2n1` (stereo unspecified) the activity change, negative = inhibition was “inactive”.
For `O=C(Nc1ccon1)c1csc2ccccc12`, the activity change, negative = inhibition was inconclusive: -2.07%.
With `Cc1ccsc1C(=O)NNC(=S)NC1CCCCC1` the Potency was inconclusive: 20 µM [falling, partial curve].
For `COc1cccc(-c2nc(CS(=O)CC(=O)NCCCOC(C)C)c(C)o2)c1` (stereo unspecified), the activity change, negative = inhibition was inconclusive: -1.95%.
With `Cc1ccc2sc(NNC(=O)C3COc4ccccc4O3)nc2c1C` (stereo unspecified) the activity change, negative = inhibition was “inactive”.
For `O=C(COC(=O)c1ccc(F)cc1)NCCCc1ccccc1`, the activity change, negative = inhibition was inconclusive: 1.48%.
With `c1ccc(OCCSc2nnnn2C2CCCCC2)cc1` the activity change, negative = inhibition was inconclusive: 6.28%.
In the case of `COc1cc(NC(=O)CCn2c(=S)oc3ccccc32)cc(OC)c1OC`, the activity change, negative = inhibition is reported as inconclusive: -10.7%.
In the case of `Cc1ccccc1Nc1nc(-c2sc(NC(=O)c3ccco3)nc2C)cs1`, the Potency is reported as inconclusive: 18.4 µM [falling, single point].
In the case of `CN(C(=S)Nc1ccc(F)cc1)C(c1ccccc1)c1ccccc1`, the activity change, negative = inhibition is reported as inconclusive: -8.01%.
For `O=C(COc1cccnc1[N+](=O)[O-])Nc1cccc(Br)c1`, the activity change, negative = inhibition was inconclusive: 8.44%.

Reference: PubChem BioAssay AID493014 (National Center for Advancing Translational Sciences (NCATS), 2011)
Potency means the concentration at half of the fitted maximal effect.
